# According to PubChem BioAssay AID1671190 (National Center for Advancing Translational Sciences (NCATS), 2021):
# Chains of the proteins cited; added tags and fusions are not shown. Lines headed by an entry give the natural chain unless they say otherwise; changes in a name come on top.
# UniProt P18054: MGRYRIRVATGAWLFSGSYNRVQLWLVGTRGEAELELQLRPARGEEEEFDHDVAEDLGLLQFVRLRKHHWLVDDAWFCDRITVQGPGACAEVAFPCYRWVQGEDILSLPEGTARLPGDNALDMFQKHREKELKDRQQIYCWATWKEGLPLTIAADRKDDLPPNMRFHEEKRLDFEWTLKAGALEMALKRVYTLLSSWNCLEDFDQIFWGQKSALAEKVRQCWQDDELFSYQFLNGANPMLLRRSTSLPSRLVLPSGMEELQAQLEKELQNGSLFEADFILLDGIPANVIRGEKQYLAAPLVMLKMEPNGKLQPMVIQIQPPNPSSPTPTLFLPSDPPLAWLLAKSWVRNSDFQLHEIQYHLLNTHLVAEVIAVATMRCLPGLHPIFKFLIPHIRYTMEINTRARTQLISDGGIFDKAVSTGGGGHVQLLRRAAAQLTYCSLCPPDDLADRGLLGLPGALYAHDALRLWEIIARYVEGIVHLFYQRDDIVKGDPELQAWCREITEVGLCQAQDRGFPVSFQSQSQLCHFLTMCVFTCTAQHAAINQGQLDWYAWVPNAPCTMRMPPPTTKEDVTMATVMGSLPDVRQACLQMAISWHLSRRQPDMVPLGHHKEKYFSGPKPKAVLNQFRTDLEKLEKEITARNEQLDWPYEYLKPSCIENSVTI
# Out of some 580,000 compounds screened, about 6,100 (1.1%) were called active. The inconclusive results got no clear call from the source; some entries with a clear call stand among them for comparison. The call rests on the fitted dose curve; in most records, active means well fitted inhibition curve with a large enough effect; inconclusive means small, poorly fitted or top-dose-only effect, or another doubt; inactive means no such curve, though single readings can be large or run the other way. Potencies beside an inconclusive call are fits to weak or partial responses and may not hold up.
# Molecular target: Polyunsaturated fatty acid lipoxygenase ALOX12 (Homo sapiens) (UniProt P18054)
# Experiment: Primary qHTS assay for inhibitors of human arachidonate 12S-lipoxygenase (ALOX12): Round 2
# Conditions: purified 12hLO, xylenol orange hydroperoxide absorbance; series mostly up to 108 µM
# Summary of the method: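 Purified human 12hLO (150 nM final) in 25 mM Hepes, 0.01% Triton X-100, pH 7.0 was preincubated 15 min at room temperature with compound. Then 40 uM arachidonic acid was added, 30 min. Hydroperoxide was read by Fe-XO absorbance ratio 573/405 nm.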
# Potency means the concentration at half of the fitted maximal effect.
row,SMILES,Potency
1,Cc1csc2ncnc(NCCc3ccccn3)c12,inactive
2,CCc1nn2c(=O)cc(COC(=O)c3cccc(NC(=O)CCc4ccccc4)c3)nc2s1,"inconclusive: 158 µM [inhibitor, partial curve, poor fit]"
3,COc1ccc(N2CC(C(=O)Nc3ccc([N+](=O)[O-])cc3Br)CC2=O)cc1 (centres undefined),"inconclusive: 112 µM [inhibitor, partial curve, poor fit]"
4,CC(C)(C)c1ccc(-c2n[nH]c(=S)n2CCCN2CCOCC2)cc1,"inconclusive: 44.7 µM [inhibitor, partial curve, poor fit]"
5,Cc1onc(C(=O)Nc2sc3c(c2C(N)=O)CCCC3)c1[N+](=O)[O-],inactive
6,Cc1ccc(N2C(=O)C3CCCN3C2=S)cc1 (centres undefined),"inconclusive: 28.2 µM [inhibitor, partial curve, poor fit]"
7,O=C(NC(=S)N(CCc1ccccc1)CCc1ccccc1)c1ccco1,"inconclusive: 20 µM [inhibitor, partial curve, poor fit]"
8,O=C(c1cc(C2CC2)nc2ccccc12)N1CCN(Cc2ccccc2)CC1,inactive
9,O=C(CCN1C(=O)C2C3C=CC(C3)C2C1=O)Nc1ccccc1 (centres undefined),inactive
10,CCCC[C@@H](C=O)NC(=O)[C@H](CC(C)C)NC(=O)OCc1ccccc1,"inconclusive: 126 µM [inhibitor, single point]"
11,O=C(Nc1ncc(Br)s1)C(Cc1ccccc1)n1cccc1 (centres undefined),inactive
12,OC[C@@H]1CNC[C@H]1C1CCN(Cc2ccc(Br)cc2F)CC1,"inconclusive: 17.8 µM [inhibitor, full curve]"
13,CCCCc1c(-c2cccc(F)c2)ncn1CCc1ccccc1OC,"inconclusive: 89.1 µM [inhibitor, single point]"
14,COCCn1c(SCc2nc3ccccc3c(=O)[nH]2)nnc1-c1ccncc1,"inconclusive: 4.47 µM [inhibitor, full curve, poor fit]"
15,CC(=O)N1CCN(CC(=O)Nc2ccc(C)c(S(=O)(=O)N(C)C)c2)CC1,"inconclusive: 0.631 µM [inhibitor, full curve, poor fit]"
16,CCc1ccc(Oc2ccc(C#N)c(C#N)c2)cc1,"inconclusive: 0.316 µM [inhibitor, full curve, poor fit]"
17,CCCCOc1ccc(CNC(=O)c2cccc(NC(=O)N3CCSc4ncccc43)c2)cc1,"inconclusive: 100 µM [inhibitor, partial curve, poor fit]"
18,NC(=S)Nc1nccc(-c2cccs2)n1,"inconclusive: 31.6 µM [inhibitor, partial curve]"
19,Cc1ccccc1C(=O)N(C)C1CCN(CCc2ccccn2)CC1,inactive
20,NC(=O)C1(C(=O)N2CCc3cc(S(=O)(=O)Nc4cccnc4)ccc3C2)CC1,"inconclusive: 3.16 µM [inhibitor, full curve, poor fit]"
21,COc1ccccc1Nc1nc(-c2c(C)[nH]c3ccccc23)cs1,"inconclusive: 50.1 µM [inhibitor, partial curve, poor fit]"
22,CC(C)CCC(CCNCc1ccco1)c1ccco1 (centres undefined),active: 0.447 µM

# Sorted by molar mass (falling): part of the list above.
row,SMILES,Potency
20,NC(=O)C1(C(=O)N2CCc3cc(S(=O)(=O)Nc4cccnc4)ccc3C2)CC1,"inconclusive: 3.16 µM [inhibitor, full curve, poor fit]"
13,CCCCc1c(-c2cccc(F)c2)ncn1CCc1ccccc1OC,"inconclusive: 89.1 µM [inhibitor, single point]"
5,Cc1onc(C(=O)Nc2sc3c(c2C(N)=O)CCCC3)c1[N+](=O)[O-],inactive

# Later entries.

row,SMILES,Potency
1,Cc1ccc(CNC(=O)CSc2ncc3c(n2)-c2cc(Cl)ccc2N(C)S3(=O)=O)cc1,"inconclusive: 89.1 µM [inhibitor, partial curve, poor fit]"
2,Cc1cc2nc3n(c(=O)c2n1CC(=O)Nc1ccc(Cl)cc1F)CCC3,"inconclusive: 39.8 µM [inhibitor, full curve, poor fit]"
3,OC1CCOC2(CCN(Cc3ccc4cc[nH]c4c3)CC2)C1 (centres undefined),"inconclusive: 15.8 µM [inhibitor, full curve]"
4,COc1nc(C)nc(Cl)c1NC1=NCCN1,"inconclusive: 34.3 µM [inhibitor, partial curve]"
5,COc1cc(NC(=O)NC[C@H]2O[C@@H](CO)[C@@H](O)[C@@H]2N(C)Cc2ccccc2)cc(OC)c1,"inconclusive: 20 µM [inhibitor, single point]"
6,CC(=O)Nc1ccccc1OCc1ccc(C)cc1,"inconclusive: 20 µM [inhibitor, full curve, poor fit]"
7,CCOC(=O)C1=C(C)N=C2SCC(=O)N2C1c1ccc(OC)cc1OC (centres undefined),inactive
8,Cc1noc(C)c1-c1cc(NCc2cccnc2)ncn1,active: 31.6 µM
9,O=C(Nc1ccc(C(F)(F)F)oc1=O)c1ccccc1,inactive
10,Oc1ccc2ccccc2c1N=Nc1ccccc1F,inactive
11,COc1ccc(-n2ncc3c(NCCCOC(C)C)ncnc32)cc1,"inconclusive: 56.2 µM [inhibitor, partial curve, poor fit]"
12,Cc1ccc(NCc2n[nH]c(=S)n2-c2ccccc2)cc1,active: 28.2 µM
13,O=C(Nc1ccc(Cl)cc1)[C@@H]1[C@@H]2C(=O)N(c3cccc(F)c3)C(=O)[C@@H]2[C@H]2C=CC=NN21,inactive
14,CN(C)c1c(F)cc(C(=O)NC(=O)NCc2cccnc2)cc1F,"inconclusive: 20 µM [inhibitor, partial curve]"
15,COc1ccc(OC)c(-n2c(Cn3c(-c4ccccn4)nc4ccccc43)n[nH]c2=S)c1,"inconclusive: 39.8 µM [inhibitor, partial curve]"
16,COc1cccc(C(=O)N2CCN(CCCc3ccccc3)CC2)c1OC,"inconclusive: 2 µM [inhibitor, full curve, poor fit]"
17,COc1cc(Sc2ccc(C)cc2)c(OC)cc1N,"inconclusive: 4.47 µM [inhibitor, full curve, poor fit]"
18,[O-]c1n[n+](-c2ccc(Cl)cc2Cl)cc2ccccc12,inactive
19,Cc1ccc(S(=O)(=O)NCC(c2ccccc2)c2ccccc2)cc1,"inconclusive: 44.7 µM [inhibitor, partial curve, poor fit]"
20,C[N+](C)(C)CCSSCC[N+](C)(C)C,active: 3.98 µM
21,NC(=O)Cc1c[nH]c2ncc(-c3ccc(Oc4ccccc4)cc3)cc12,"inconclusive: 112 µM [inhibitor, partial curve]"
22,CC(=O)Nc1cc(-c2nc3cc(C(C)C)ccc3o2)ccc1Cl,"inconclusive: 3.98 µM [inhibitor, partial curve, poor fit]"
